Measured values reported in article PMC6166740.

Key:
Assay in all cases: co-IP; FLAG-tagged and V5-tagged proteins coexpressed in HEK293T cells (calcium phosphate, 24 h); lysis in 1% Triton X-100, 20 mM Tris pH 7.5, 50 mM NaCl, 50 mM NaF, 15 mM Na4P2O7, 0.1 mM EDTA; anti-FLAG M2 agarose beads 2 h; Western blot with anti-V5 and anti-FLAG
[1] = target: T1, FLAG-tagged INVS (inversin) (UniProt Q9Y283)
T1 sequence: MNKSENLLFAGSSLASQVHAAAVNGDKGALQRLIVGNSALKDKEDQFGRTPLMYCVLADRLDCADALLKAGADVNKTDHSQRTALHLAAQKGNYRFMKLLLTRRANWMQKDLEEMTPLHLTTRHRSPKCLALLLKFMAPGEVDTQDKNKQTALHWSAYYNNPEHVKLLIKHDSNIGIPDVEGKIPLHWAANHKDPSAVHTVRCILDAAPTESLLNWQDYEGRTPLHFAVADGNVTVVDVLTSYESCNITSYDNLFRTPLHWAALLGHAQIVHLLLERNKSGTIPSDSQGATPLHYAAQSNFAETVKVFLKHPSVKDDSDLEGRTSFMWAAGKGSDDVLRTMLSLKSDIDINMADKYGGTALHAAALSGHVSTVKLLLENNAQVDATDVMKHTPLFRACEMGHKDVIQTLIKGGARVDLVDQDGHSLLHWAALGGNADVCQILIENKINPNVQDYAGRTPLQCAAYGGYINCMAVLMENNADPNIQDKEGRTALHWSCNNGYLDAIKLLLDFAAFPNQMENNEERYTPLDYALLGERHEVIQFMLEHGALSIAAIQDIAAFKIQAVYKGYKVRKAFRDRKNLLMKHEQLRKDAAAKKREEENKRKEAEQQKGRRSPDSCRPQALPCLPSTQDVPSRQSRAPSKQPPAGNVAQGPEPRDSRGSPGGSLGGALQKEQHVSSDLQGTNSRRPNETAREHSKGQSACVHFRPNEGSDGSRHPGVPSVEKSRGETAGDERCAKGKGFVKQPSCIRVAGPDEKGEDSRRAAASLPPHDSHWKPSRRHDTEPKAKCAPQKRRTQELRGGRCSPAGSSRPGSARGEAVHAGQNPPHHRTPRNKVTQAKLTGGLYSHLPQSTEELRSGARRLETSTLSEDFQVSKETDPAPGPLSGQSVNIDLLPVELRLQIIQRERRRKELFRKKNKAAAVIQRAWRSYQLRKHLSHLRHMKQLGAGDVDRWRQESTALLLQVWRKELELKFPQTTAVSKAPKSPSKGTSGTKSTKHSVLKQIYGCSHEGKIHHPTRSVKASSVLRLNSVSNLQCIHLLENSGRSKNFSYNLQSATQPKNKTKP

[2] = target: T2, FLAG-tagged NEK8 (NIMA-related kinase 8) (UniProt Q86SG6)
T2 sequence: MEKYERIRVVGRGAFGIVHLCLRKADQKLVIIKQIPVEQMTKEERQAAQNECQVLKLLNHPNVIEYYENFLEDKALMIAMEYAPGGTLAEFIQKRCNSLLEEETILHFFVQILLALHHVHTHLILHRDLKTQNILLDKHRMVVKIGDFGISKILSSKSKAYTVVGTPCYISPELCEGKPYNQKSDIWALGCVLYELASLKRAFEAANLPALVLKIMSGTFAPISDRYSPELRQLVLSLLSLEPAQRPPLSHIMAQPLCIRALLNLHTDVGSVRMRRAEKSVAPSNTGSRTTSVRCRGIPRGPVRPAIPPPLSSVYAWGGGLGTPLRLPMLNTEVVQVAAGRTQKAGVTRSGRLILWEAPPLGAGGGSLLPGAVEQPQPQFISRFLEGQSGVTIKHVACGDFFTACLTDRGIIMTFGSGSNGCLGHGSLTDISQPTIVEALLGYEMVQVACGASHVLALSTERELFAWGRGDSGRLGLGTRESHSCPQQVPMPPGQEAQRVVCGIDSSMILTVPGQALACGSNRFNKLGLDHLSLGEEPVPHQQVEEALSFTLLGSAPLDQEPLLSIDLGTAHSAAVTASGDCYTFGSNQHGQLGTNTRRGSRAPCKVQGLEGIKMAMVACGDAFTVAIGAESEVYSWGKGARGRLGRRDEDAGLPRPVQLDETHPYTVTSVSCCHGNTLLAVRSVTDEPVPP

[3] = target: T3, FLAG-tagged NME3 (NME/NM23 nucleoside-diphosphate kinase 3), wild type (human) (UniProt Q13232)
T3 sequence: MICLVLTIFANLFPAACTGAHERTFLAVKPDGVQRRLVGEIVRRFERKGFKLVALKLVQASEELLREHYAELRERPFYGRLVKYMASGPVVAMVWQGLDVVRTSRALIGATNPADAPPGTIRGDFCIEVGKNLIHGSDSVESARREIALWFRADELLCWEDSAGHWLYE

Measured: binding

V5-tagged NEK6 (human (cDNA from 293T cells)) (enzyme)
binds: [1] | [2] | [3]

No constants are given. Whether binding was seen depends on the method and setting. In cells and extracts the contact can be indirect. Binding calls can cover weak binding; strength is not graded here. Where a sequence is shown, tags or fusion partners need not be part of it.
